The results in this text go back to patent publication EP0090353A1, “2-Pyridone derivatives, method for their preparation and pharmaceutical compositions containing them” (priority 1982, dated 1983).

As a reminder, the LD50 is the dose at which mortality reaches 50%.

The test system of data set [1] is Ratten des Sprague-Dawley-Stammes. In words: in vivo. To be noted: ratio of LD50 (acute toxicity) to ED50 (adjuvant arthritis), rat. An excerpt: (§1) Die Bestimmung der akuten Toxizitäten erfolgten in Standardmethoden an Ratten des Sprague-Dawley-Stammes. Pro Dosierung wurden 6 Tiere verwendet. Die LD50-Werte wurden nach Lichtfield und Wilcoxon bestimmt. [drawing 8]

A short description of another data set: in vivo. To be noted: rat, in vivo; Sprague-Dawley rats, 6 animals per dose; Litchfield-Wilcoxon; read-out: LD50 akute Toxizität.
Text: as §1

Another data set has as its system gastrale Ulcera. In words: Gastric ulcerogenic effect. To be noted: ratio of UD50 (gastric ulcers) to ED50 (adjuvant arthritis), rat.
A short description of data set [2]: Gastric ulcerogenic effect. To be noted: rat, stomach, po.

Structures are written as SMILES.

Regarding `COc1ccc2cc([C@H](C)C(=O)O)ccc2c1` [Naproxen, reference compound], the “TI (LD50 /ED50) therapeutischer Index” value in data set [1] turned out to be 26. For the same compound, the LD50 in the data set “in vivo” was determined as 395 mg/kg. Also, the “TI(UD50/ED50) therapeutischer Index” value in the data set on gastrale Ulcera is 2. This compound also showed a TD50 at 24 h in data set [2] of 21 mg/kg.
